Experimental data taken from PMC10620119.
Results are given in words; binding and its absence hold for the method and conditions named. In cells and extracts the contact can be indirect. Some entries that bind do so weakly or less than the wild type.

By UniProt entry, the sequences of proteins in these tests, tags left out.
UniProt Q8CBW3: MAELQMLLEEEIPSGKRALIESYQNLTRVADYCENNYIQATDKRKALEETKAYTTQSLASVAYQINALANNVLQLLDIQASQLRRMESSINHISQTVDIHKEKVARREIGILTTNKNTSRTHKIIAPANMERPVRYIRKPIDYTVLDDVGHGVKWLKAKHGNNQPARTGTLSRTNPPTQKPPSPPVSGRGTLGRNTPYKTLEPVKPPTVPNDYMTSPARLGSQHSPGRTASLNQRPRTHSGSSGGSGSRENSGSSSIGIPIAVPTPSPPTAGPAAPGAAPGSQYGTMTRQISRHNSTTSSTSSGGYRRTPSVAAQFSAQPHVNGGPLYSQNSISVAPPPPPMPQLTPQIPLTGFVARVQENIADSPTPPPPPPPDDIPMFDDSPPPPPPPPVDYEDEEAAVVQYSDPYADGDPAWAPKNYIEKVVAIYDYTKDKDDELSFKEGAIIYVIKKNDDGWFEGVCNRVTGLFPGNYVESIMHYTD
UniProt Q9WUU8: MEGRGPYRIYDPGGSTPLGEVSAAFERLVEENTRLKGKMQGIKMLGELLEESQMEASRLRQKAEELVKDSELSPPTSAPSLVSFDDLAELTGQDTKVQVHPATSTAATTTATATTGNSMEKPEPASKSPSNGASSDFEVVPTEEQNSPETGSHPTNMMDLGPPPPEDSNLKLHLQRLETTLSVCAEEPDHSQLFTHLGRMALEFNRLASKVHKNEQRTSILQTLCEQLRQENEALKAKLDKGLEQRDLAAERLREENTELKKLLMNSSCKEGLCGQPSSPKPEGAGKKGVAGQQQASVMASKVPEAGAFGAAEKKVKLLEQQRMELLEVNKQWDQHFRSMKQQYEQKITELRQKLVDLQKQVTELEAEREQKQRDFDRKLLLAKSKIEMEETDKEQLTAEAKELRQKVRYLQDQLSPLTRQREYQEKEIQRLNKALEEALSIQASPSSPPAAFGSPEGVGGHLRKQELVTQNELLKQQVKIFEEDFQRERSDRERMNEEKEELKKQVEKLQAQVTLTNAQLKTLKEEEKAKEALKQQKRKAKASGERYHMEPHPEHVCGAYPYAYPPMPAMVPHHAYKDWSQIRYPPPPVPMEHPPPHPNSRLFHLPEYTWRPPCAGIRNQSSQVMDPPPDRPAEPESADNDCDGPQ

B1: ELKS/RAB6-interacting/CAST family member 1 (ERC1) (protein, UniProt Q99MI1 1-1120)
chain: MYGSARSVGKVEPSSQSPGRSPRLPRSPRLGHRRTNSTGGSSGNSVGGGSGKTLSMENIQSLNAAYATSGPMYLSDHENVGAETPKSTMTLGRSGGRLPYGVRMTAMGSSPNIASSGVASDTIAFGEHHLPPVSMASTVPHSLRQARDNTIMDLQTQLKEVLRENDLLRKDVEVKESKLSSSMNSIKTFWSPELKKERALRKDEASKITIWKEQYRVVQEENQHMQMTIQALQDELRIQRDLNQLFQQDSSSRTGEPCVAELTEENFQRLHAEHERQAKELFLLRKTLEEMELRIETQKQTLNARDESIKKLLEMLQSKGLSAKATEEDHERTRRLAEAEMHVHHLESLLEQKEKENNMLREEMHRRFENAPDSAKTKALQTVIEMKDSKISSMERGLRDLEEEIQMLKSNGALSSEEREEEMKQMEVYRSHSKFMKNKVEQLKEELSSKDAQGEELKKRAAGLQSEIGQVKQELSRKDTELLALQTKLETLTNQFSDSKQHIEVLKESLTAKEQRAAILQTEVDALRLRLEEKETMLNKKTKQIQDMAEEKGTQAGEIHDLKDMLDVKERKVNVLQKKIENLQEQLRDKEKQMSSLKERVKSLQADTTNTDTALTTLEEALADKERTIERLKEQRDRDEREKQEEIDTYKKDLKDLREKVSLLQGDLSEKEASLLDIKEHASSLASSGLKKDSRLKTLEIALEQKKEECLKMESQLKKAHEATLEARASPEMSDRIQQLEREISRYKDESSKAQTEVDRLLEILKEVENEKNDKDKKIAELESLTSRQVKDQNKKVANLKHKEQVEKKKSAQMLEEARRREDSLSDSSQQLQDSLRKKDDRIEELEEALRESVQITAEREMVLAQEESARTNAEKQVEELLMAMEKVKQELESMKAKLSSTQQSLAEKETHLTNLRAERRKHLEEVLEMKQEALLAAISEKDANIALLELSSSKKKTQEEVAALKREKDRLVQQLKQQTQNRMKLMADNYEDDHFRSSRSNQTNHKPSPDQIIQPLLELDQNRSKLKLYIGHLTALCHDRDPLILRGLTPPASYNADGEQAAWENELQQMTQEQLQNELEKVEGDNAELQEFANTILQQIADHCPDILEQVVNALEESS

Biological target: Abelson interactor 1 (ABI1) (mouse (endogenous in NIH/3T3)) (UniProt Q8CBW3)
Test: co-IP; endogenous proteins in lysate of unstimulated WT NIH/3T3; lysis in 25 mM Tris-HCl pH 7.4, 150 mM NaCl, 5% glycerol, 1% NP-40; precleared with mouse IgG; 5 ug anti-ABI1 (clone 1B9, MBL) or mouse IgG1 isotype control, Protein G Dynabeads, 4 C; washes with 0.1% NP-40; western blot

| Molecule | binding |
| --- | --- |
| TNFAIP3 interacting protein 1 (TNIP1) (from UniProt Q9WUU8 1-647) | no binding |
| B1 | binds |
